Assay results published in PubChem BioAssay AID2685 (National Center for Advancing Translational Sciences (NCATS), 2010).
Some of the results follow. Shown are side measurements of this screen, not its main read-out; they come without a call. Compounds called inactive in the main read-out are mostly missing here. Potencies come from curve fits of mixed quality, noted in brackets.

Experiment: qHTS Assay for Lipid Storage Modulators in Drosophila S3 Cells;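 for cell number change: cells counted by Cell Tracker Red CMTPX staining in the red channel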
Conditions: BODIPY lipid droplet fluorescence, 18-24 h; for cell number change: measured here: cell count max response, cells fed with added oleic acid
Summary of the method: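 Laser-scanning cytometry quantifies lipid droplet accumulation (500–530 nm total intensity; droplet/cell object ratio) in oleic acid-fed (400 uM added) Drosophila S3 cells treated with a concentration series. 20 uM Triacsin C defined 100% inhibition.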

[1] = measured here: lipid fluorescence (Fed channel) AC50, cells fed with added oleic acid
[2] = measured here: cell number channel AC50, cells fed with added oleic acid

Row | Compound | AC50 [1] | cell number change [%] | AC50 [2]
1 | C=C(C)c1nc2cc(OC)c(OC)cc2c(=O)o1 | 0.00461 µM [rising, full curve, poor fit] |  | 
2 | CN(C)c1nc(OCCOC(=O)c2ccccc2)nc(N(C)C)n1 | 29.1 µM [rising, partial curve] | -14.2 | 0.731 µM [rising, single point]
3 | O=c1ccc(N=Nc2ccccc2)ccc1O | 16.4 µM [falling, partial curve] | -21.3 | 
4 | Cc1ccc(C)c(NC(=O)CN(C)C(=O)[C@@H](NC(=O)c2ccc(C(C)(C)C)cc2)C(C)C)c1 | 16.4 µM [falling, single point] | -61.8 | 18.4 µM [falling, single point]
5 | CNc1nc(-c2ccccc2)cc(-c2ccccc2)n1 |  | 8.01 | 
6 | CN1CCN(NC(=O)/C=C/c2ccc(Br)cc2)CC1 | 10.3 µM [rising, partial curve, poor fit] | 22 | 3.66 µM [rising, partial curve]
7 | COc1ccc(/C=C2\SC(=O)N(CCNC(=O)C3CC(=O)N(c4ccccc4)C3)C2=O)cc1 (stereo not drawn) |  | 1.02 | 5.8 µM [falling, single point]
8 | CCn1nc(NC(=O)c2ccccn2)c2cc3cccc(C)c3nc21 |  | -0.0644 | 
9 | Cc1ccc(/C=C/C(O)=C2/C(=O)N(C)C3(C)CC2c2ccccc2O3)cc1 (stereo not drawn) | 3.66 µM [rising, partial curve, poor fit] | -20.5 | 
10 | COc1ccccc1OCC(=O)N/N=C1\CCc2ccccc21 | 2.31 µM [rising, partial curve] | 44.5 | 1.64 µM [rising, full curve]
11 | O=C(NCc1ccccc1Cl)c1ccc2ccccc2n1 | 6.51 µM [rising, single point] | -15.9 | 
12 | Cc1ccc(S(=O)(=O)N(C)c2nc3ccccc3n3c(C(C)C)nnc23)cc1 | 6.51 µM [falling, single point] | -17 | 4.61 µM [falling, single point]
13 | O=C(Nc1cnn(Cc2ccc(Cl)cc2)c1)C1CCCC1 | 4.11 µM [rising, single point] | 0.583 | 
14 | CCCn1c(=O)c2c(C(=O)OCC)cc(-c3ccco3)nc2n(CCC)c1=O | 23.1 µM [falling, single point] | -42.3 | 29.1 µM [falling, single point]
15 | CCOC(=O)C1CCN(C(=O)c2ccc3c(c2)C(=O)N(c2ccccc2C)C3=O)CC1 | 4.11 µM [falling, partial curve] | 15 | 
16 | CC(C)(C)OC(=O)N1CCC(NC(=O)c2[nH]cnc2C(=O)Nc2ccccc2)CC1 | 1.84 µM [falling, single point] | -73.8 | 5.17 µM [falling, single point]
17 | N#CCCSc1nc(N2CCOCC2)c2c(c1C#N)CCCC2 | 0.00517 µM [falling, full curve, poor fit] | -10.7 | 
18 | Cc1cc(OCc2cccc(Cl)c2)c(C)cc1CN1CCOCC1 | 18.4 µM [falling, partial curve, poor fit] | -26 | 
19 | O=[N+]([O-])c1ccccc1S(=O)(=O)c1ccccc1 | 6.51 µM [rising, single point] | 28.4 | 

Row | Compound | AC50 [1] | cell number change [%] | AC50 [2]
20 | Cc1ccc(NC(=O)C(Cc2ccccc2)NC(=O)OCc2ccccc2)cc1C (stereo not drawn) |  | -16 | 
21 | COc1ccc(NC(=O)CCNS(=O)(=O)c2cccc3nonc23)cc1Cl | 6.51 µM [falling, single point] | -25.7 | 
22 | O=c1[nH]c2cc3c(cc2cc1CN(CCN1CCOCC1)C(=S)NCC1CCCO1)OCO3 (stereo not drawn) | 7.31 µM [rising, single point] | 0.428 | 
23 | CC(C)CC(NC(=O)c1ccco1)C(=O)Nc1ccc2c(c1)OCCO2 (stereo not drawn) | 7.31 µM [rising, partial curve, poor fit] | 1.56 | 
24 | CC(Sc1nc(-c2ccccc2)cc(C(F)(F)F)n1)C(=O)N1CCCCC1 (stereo not drawn) | 5.8 µM [falling, full curve] | -44.2 | 29.1 µM [falling, single point]
25 | CCCCCOC(=O)Nc1ccc(S(=O)(=O)Nc2cccc([N+](=O)[O-])c2)cc1 |  | -50.3 | 16.4 µM [falling, single point]
26 | O=C(O)CCCN1C(=O)c2cccc3cccc(c23)C1=O |  | 3.86 | 
27 | O=C(/C=C/c1ccccc1[N+](=O)[O-])OC1CCCCC1=O (stereo not drawn) |  | 9.16 | 
28 | CCOC(=O)c1c(C)[nH]c(C(=O)COC(=O)CSCC(=O)N(CC)CC)c1C |  | 5.31 | 0.00411 µM [rising, full curve, poor fit]
29 | O=C1Nc2ccc(Cl)cc2C12Nc1ccccc1-c1nnc(SCc3ccccc3F)nc1O2 (stereo not drawn) | 0.411 µM [falling, single point] | -14.4 | 
30 | CCCn1c(SCC(=O)NC2CCCC2)nnc1-c1cccnc1 | 2.91 µM [rising, single point] | -1.3 | 
31 | O=c1[nH]sc2ccccc12 | 29.1 µM [falling, partial curve, poor fit] | -56.9 | 1.3 µM [falling, full curve]
32 | CC1CCCCC12NC(=O)N(CC(=O)Nc1sc3c(c1C(N)=O)CCC3)C2=O (stereo not drawn) |  | 67.5 | 29.1 µM [rising, single point]
33 | CCOc1ncccc1C(=O)OCC(=O)Nc1nnc(-c2ccccc2)o1 |  | -16.8 | 
34 | Cc1ccc(Cl)cc1N(Cc1ccc(C(=O)NCc2cccnc2)cc1)S(=O)(=O)c1ccccc1 | 20.6 µM [falling, partial curve] | -24.7 | 
35 | Cc1oc2ccc(OCC(N)=O)cc2c1C(=O)OC(C)C | 0.082 µM [rising, full curve, poor fit] |  | 
36 | CCN1CCN(C(=O)C2CCN(c3nnc(-n4c(C)ccc4C)s3)CC2)CC1 | 2.59 µM [falling, full curve, poor fit] | -15.6 | 
37 | COc1cc(-c2n[nH]c(=S)n2-c2cc(C(F)(F)F)ccc2Cl)cc(OC)c1OC |  | -36.6 | 0.517 µM [falling, full curve, poor fit]
38 | O=C(c1ccccc1)N1CCOC12CCN(c1ncc(C(F)(F)F)cc1Cl)CC2 | 6.51 µM [rising, single point] | -2.49 | 

Part of the list above in order of formula weight, ascending:
Row | Compound | AC50 [1] | cell number change [%] | AC50 [2]
24 | CC(Sc1nc(-c2ccccc2)cc(C(F)(F)F)n1)C(=O)N1CCCCC1 (stereo not drawn) | 5.8 µM [falling, full curve] | -44.2 | 29.1 µM [falling, single point]
28 | CCOC(=O)c1c(C)[nH]c(C(=O)COC(=O)CSCC(=O)N(CC)CC)c1C |  | 5.31 | 0.00411 µM [rising, full curve, poor fit]
7 | COc1ccc(/C=C2\SC(=O)N(CCNC(=O)C3CC(=O)N(c4ccccc4)C3)C2=O)cc1 (stereo not drawn) |  | 1.02 | 5.8 µM [falling, single point]

(listing goes on)

Row | Compound | AC50 [1] | cell number change [%] | AC50 [2]
39 | CCOc1ccc(/C=C/C(=O)c2ccccc2)cc1 | 16.4 µM [rising, partial curve] | 111 | 23.1 µM [rising, single point]
40 | COC(=O)[C@H](C)NC(=O)NC1CCCc2ccccc21 (stereo partly drawn) | 0.259 µM [rising, partial curve] | 31 | 29.1 µM [rising, single point]
41 | Cc1cc(C(=O)COC(=O)c2ccc(O)cc2O)c(C)n1-c1ccccc1 |  | -1.1 | 
42 | CC1(C(=O)NC2CCCC2)CCC(=O)N1Cc1cccs1 (stereo not drawn) | 29.1 µM [rising, single point] | 9.96 | 
43 | Cc1ccc(Nc2c([N+](=O)[O-])ccc3nonc23)cc1C | 29.1 µM [rising, single point] | -8.33 | 
44 | COC(=O)[C@@H]1C[C@]2(OC(=O)c3ccccc3)C=CC(=O)C[C@@H]2N1C(=O)OCc1ccccc1 | 29.1 µM [falling, single point] | 0.484 | 
45 | CCCc1ccc(-c2cc(NC(=O)CSc3n[nH]c(N)n3)n(-c3ccccc3)n2)cc1 | 0.00651 µM [rising, full curve, poor fit] | -11.4 | 
46 | CCOC(=O)c1oc2ccc(S(=O)(=O)Nc3ccc4c(c3)n(C)c(=O)n4C)cc2c1C |  |  | 0.164 µM [rising, full curve]
47 | O=C(CSc1nc2ccccc2s1)NCCCN1CCOCC1 | 2.06 µM [rising, partial curve] | 38.6 | 0.92 µM [rising, partial curve]
48 | Cc1ccc(S(=O)(=O)CCC(=O)OCC(=O)N2c3ccccc3NC(=O)C2(C)C)cc1 | 29.1 µM [falling, single point] | 2.43 | 
49 | Cc1cc(C(=O)O)ccc1-c1ccc(/C=C2\NC(=O)N(Cc3ccc(F)cc3)C2=O)o1 | 8.2 µM [rising, partial curve] | 46.9 | 1.3 µM [rising, partial curve]
50 | COc1ccc(C2C(C(C)=O)=C(O)C(=O)N2c2nccs2)cc1 (stereo not drawn) | 3.66 µM [falling, full curve] | -43.2 | 1.16 µM [falling, full curve]
51 | O=C(Nc1ccc(Cl)c(S(=O)(=O)N2CCCCC2)c1)c1cnccn1 |  | 2.08 | 0.13 µM [falling, full curve, poor fit]
52 | CCOc1ccc(C(C(=O)NCC2CCCO2)N(CCc2cccc(C)c2)C(=O)c2snc(C(N)=O)c2N)cc1 (stereo not drawn) | 25.9 µM [falling, partial curve] | -9.68 | 
53 | CC(=O)O[C@H]1CSC[C@H]1NC(=O)c1ccccc1 | 4.11 µM [falling, partial curve] | -8.78 | 5.17 µM [falling, partial curve]
54 | O=C(NCc1ccccc1Cl)c1ccc2c(c1)SC1=NS(=O)(=O)CCN12 | 0.00461 µM [falling, full curve, poor fit] | 91.4 | 0.00517 µM [falling, full curve, poor fit]
55 | CCOC(=O)CC(C#N)c1cn(C)c2ccccc12 (stereo not drawn) |  | 40.3 | 25.9 µM [rising, single point]
56 | COc1ccc(C2=NN(C(=O)C(O)c3ccccc3)C(O)(C(F)(F)F)C2)cc1 (stereo not drawn) | 0.651 µM [rising, full curve] | 5.77 | 
